According to the supplement of paper PMC12823440, “Inhibitors supercharge kinase turnover through native proteolytic circuits” (Nature, 2025):
Where a name gives a salt, the structure may show the parent alone. This is one part of the list. Hit calls seldom repeat between salt and free forms of one compound.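 In K562 cells expressing nanoluciferase-fused kinases, luminescence was recorded at 4 h intervals between 2 and 18 h, normalized as percent of control with DMSO at 100% and a positive control at 0%. A significant (2 sigma) signal drop marks a time point as decreased. The authors' rule for a hit is not shown and takes in more than the number of time points.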

Amino acid sequences for entries named in this document (tags omitted). A change or cut given only in a name is not applied to a line headed by its entry.
UniProt P42680: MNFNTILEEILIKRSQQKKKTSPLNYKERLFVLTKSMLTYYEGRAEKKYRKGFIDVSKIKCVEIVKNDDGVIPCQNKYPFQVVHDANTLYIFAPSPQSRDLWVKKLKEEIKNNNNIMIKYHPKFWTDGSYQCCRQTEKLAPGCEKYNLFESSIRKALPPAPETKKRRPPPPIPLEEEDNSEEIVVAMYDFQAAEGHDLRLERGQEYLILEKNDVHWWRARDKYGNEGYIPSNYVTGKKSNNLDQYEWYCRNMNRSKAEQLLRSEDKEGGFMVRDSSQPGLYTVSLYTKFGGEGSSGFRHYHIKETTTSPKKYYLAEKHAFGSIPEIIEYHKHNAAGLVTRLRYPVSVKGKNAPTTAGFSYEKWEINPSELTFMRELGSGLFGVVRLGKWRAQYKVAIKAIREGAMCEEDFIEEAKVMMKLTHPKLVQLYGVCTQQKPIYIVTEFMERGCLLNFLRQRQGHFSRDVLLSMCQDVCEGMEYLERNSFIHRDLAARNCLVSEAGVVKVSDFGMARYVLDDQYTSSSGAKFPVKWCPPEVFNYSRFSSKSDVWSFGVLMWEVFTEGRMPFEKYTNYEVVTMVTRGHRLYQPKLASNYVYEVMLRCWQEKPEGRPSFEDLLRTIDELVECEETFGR

Target: TEC (UniProt P42680)
Experiment: kinase-Nluc reporter destabilization hit call (1 = scored as downregulated) (binary); higher = compound decreases kinase abundance
Settings: 2.5 µM; K562; 2-18 h

kinase-Nluc reporter destabilization hit call, inactive:
C=CC(=O)Nc1cc(Nc2nccc(-c3cn(C)c4ccccc34)n2)c(OC)cc1N(C)CCN(C)C [Osimertinib mesylate] 0
Cc1cccc(-c2[nH]c(CNc3ccccc3F)nc2-c2ccc3ncnn3c2)n1 [Vactosertib (Hydrochloride)] 0
CC(C)Oc1ccc(-c2nn([C@@H](C)c3oc4ccc(F)cc4c(=O)c3-c3cccc(F)c3)c3ncnc(N)c23)cc1F [Umbralisib (hydrochloride)] 0
COc1ccc(S(=O)(=O)Nc2ccccc2CN(C)C/C=C/c2ccc(Cl)cc2)cc1 [KN-92 (phosphate)] 0
CN(C)C(=O)c1cc2cnc(Nc3ccc(N4CCNCC4)cn3)nc2n1C1CCCC1 [Ribociclib succinate hydrate] 0
C=CC(=O)Nc1cc2c(Nc3ccc(F)c(Cl)c3)ncnc2cc1C#CC(C)(C)N1CCN(C)CC1 0
Cc1cccc(/C=N/Nc2cc(N3CCOCC3)nc(OCCc3ccccn3)n2)c1 [Apilimod] 0
COc1cc2c(Oc3ccc4[nH]c(C)cc4c3F)ncnc2cc1OCCCN1CCCC1 [Cediranib] 0
Cc1cc(Nc2ncc(Cl)c(Nc3ccccc3S(=O)(=O)C(C)C)n2)c(OC(C)C)cc1C1CCNCC1 [Ceritinib dihydrochloride] 0
Nc1ncnc2c1c(-c1ccc(Oc3ccccc3)cc1)nn2[C@@H]1CCCNC1 0
CNC(=O)c1cc(Oc2ccc(NC(=O)Nc3ccc(Cl)c(C(F)(F)F)c3)c(F)c2)ccn1 [Regorafenib] 0

Pulled by structure from the list above (two):
kinase-Nluc reporter destabilization hit call, inactive:
CN(C)C(=O)c1cc2cnc(Nc3ccc(N4CCNCC4)cn3)nc2n1C1CCCC1 [Ribociclib succinate hydrate] 0
C=CC(=O)Nc1cc(Nc2nccc(-c3cn(C)c4ccccc34)n2)c(OC)cc1N(C)CCN(C)C [Osimertinib mesylate] 0

Same assay, conditions: 10 µM; K562; 2-18 h

kinase-Nluc reporter destabilization hit call, inactive:
COc1ncc(F)cc1CNc1ccc(Cc2c[nH]c3ncc(C)cc23)c(F)n1 [PLX5622 (hemifumarate)] 0
C#Cc1cccc(Nc2ncnc3cc(OCCOC)c(OCCOC)cc23)c1 [Erlotinib] 0
Oc1cccc(-c2nc(N3CCOCC3)c3oc4ncccc4c3n2)c1 0
C#Cc1cccc(Nc2ncnc3cc(OCCOC)c(OCCO)cc23)c1 [Desmethyl Erlotinib (hydrochloride)] 0
C[C@@H](N)[C@H]1CC[C@H](C(=O)Nc2ccncc2)CC1 0
C#Cc1cccc(Nc2ncnc3cc4c(cc23)OCCOCCOCCO4)c1 [Icotinib] 0
C#Cc1cccc(Nc2ncnc3cc4c(cc23)OCCOCCOCCO4)c1 [Icotinib (Hydrochloride)] 0
O=C(c1ccc(F)c(F)c1Nc1ccc(I)cc1F)N1CC(O)([C@@H]2CCCCN2)C1 [Cobimetinib] 0
COc1cc2nccc(Nc3cc(OC)c(OC)c(OC)c3)c2cc1OC [GAK inhibitor 49 (hydrochloride)] 0
O=C(c1ccc(F)c(F)c1Nc1ccc(I)cc1F)N1CC(O)([C@@H]2CCCCN2)C1 [Cobimetinib (hemifumarate)] 0
C=CC(=O)Nc1cc(Nc2ncc(C(=O)OC(C)C)c(-c3cn(C)c4ccccc34)n2)c(OC)cc1N(C)CCN(C)C [Mobocertinib (succinate)] 0
CNC(=O)c1ccccc1Nc1cc(Nc2ccc(N3CCOCC3)cc2OC)ncc1C(F)(F)F [PND-1186 (hydrochloride)] 0
Cc1cccc(/C=N/Nc2cc(N3CCOCC3)nc(OCCc3ccccn3)n2)c1 [Apilimod (mesylate)] 0
O=C(O)c1ccc2c(c1)nc(Nc1cccc(Cl)c1)c1ccncc12 [Silmitasertib (sodium salt)] 0
C[C@H](CCC(=O)NCCS(=O)(=O)O)[C@H]1CC[C@H]2[C@@H]3[C@@H](O)C[C@@H]4C[C@H](O)CC[C@]4(C)[C@H]3CC[C@]12C [Tauroursodeoxycholate (dihydrate)] 0
COc1cc2c(cc1OC)-c1c(C)c3ccc(OC)c(OC)c3c[n+]1CC2 [Dehydrocorydaline (chloride)] 0
Clc1ccc(C2(c3ccc(-c4cn[nH]c4)cc3)CCNCC2)cc1 0
CCCC(=O)Nc1ncnc2c1ncn2[C@@H]1O[C@@H]2COP(=O)(O)O[C@H]2[C@H]1OC(=O)CCC [Bucladesine (calcium)] 0
CCS(=O)(=O)N1CCN(c2ccc(Nc3ncc(C(N)=O)c(NC4CC4)n3)cc2)CC1 [Cerdulatinib] 0
CCS(=O)(=O)N1CC(CC#N)(n2cc(-c3ncnc4[nH]ccc34)cn2)C1 [Baricitinib (phosphate)] 0
FC(F)(F)c1ccc(CNc2ccc(Cc3c[nH]c4ncc(Cl)cc34)cn2)cn1 [Pexidartinib (hydrochloride)] 0
O=C(Nc1cnn2ccc(N3CCC[C@@H]3c3cc(F)ccc3F)nc12)N1CC[C@H](O)C1 [Larotrectinib sulfate] 0
C[C@@H](N)c1ccc(C(=O)Nc2ccnc3[nH]ccc23)cc1 0
C[S+]([O-])c1ccc(-c2nc(-c3ccc(F)cc3)c(-c3ccncc3)[nH]2)cc1 (stereo unspecified) 0
CS(=O)(=O)N1CCN(Cc2cc3nc(-c4cccc5[nH]ncc45)nc(N4CCOCC4)c3s2)CC1 [Pictilisib (dimethanesulfonate)] 0
